The nature of this series: Fmoc solid-phase peptide synthesis; Rink Amide resin; HBTU/HOBt. The following applies: whole synthesis, overall.

HELM strings list residues between dots; [ac] is acetyl, [am] amide, other brackets name non-standard units.

Take “PEPTIDE1{P.P.G.[Hyp].P.G.[Nin].P.P.G.[Hyp].P.G.[Nin].P.P.G.[Hyp].P.G.[Nin].P.P.G.[Hyp].P.G.[Nin].P.P.G.[Hyp].P.G.[am]}$$$$V2.0”: the isolated yield is 41%.
